Drawing on patent US20170233472A1, this text covers binding for 23 molecules.

By UniProt entry, the sequences of proteins in these tests, tags left out. Where a name states a change or a piece, a line headed by the entry shows the natural chain unless it says otherwise.
UniProt Q01973: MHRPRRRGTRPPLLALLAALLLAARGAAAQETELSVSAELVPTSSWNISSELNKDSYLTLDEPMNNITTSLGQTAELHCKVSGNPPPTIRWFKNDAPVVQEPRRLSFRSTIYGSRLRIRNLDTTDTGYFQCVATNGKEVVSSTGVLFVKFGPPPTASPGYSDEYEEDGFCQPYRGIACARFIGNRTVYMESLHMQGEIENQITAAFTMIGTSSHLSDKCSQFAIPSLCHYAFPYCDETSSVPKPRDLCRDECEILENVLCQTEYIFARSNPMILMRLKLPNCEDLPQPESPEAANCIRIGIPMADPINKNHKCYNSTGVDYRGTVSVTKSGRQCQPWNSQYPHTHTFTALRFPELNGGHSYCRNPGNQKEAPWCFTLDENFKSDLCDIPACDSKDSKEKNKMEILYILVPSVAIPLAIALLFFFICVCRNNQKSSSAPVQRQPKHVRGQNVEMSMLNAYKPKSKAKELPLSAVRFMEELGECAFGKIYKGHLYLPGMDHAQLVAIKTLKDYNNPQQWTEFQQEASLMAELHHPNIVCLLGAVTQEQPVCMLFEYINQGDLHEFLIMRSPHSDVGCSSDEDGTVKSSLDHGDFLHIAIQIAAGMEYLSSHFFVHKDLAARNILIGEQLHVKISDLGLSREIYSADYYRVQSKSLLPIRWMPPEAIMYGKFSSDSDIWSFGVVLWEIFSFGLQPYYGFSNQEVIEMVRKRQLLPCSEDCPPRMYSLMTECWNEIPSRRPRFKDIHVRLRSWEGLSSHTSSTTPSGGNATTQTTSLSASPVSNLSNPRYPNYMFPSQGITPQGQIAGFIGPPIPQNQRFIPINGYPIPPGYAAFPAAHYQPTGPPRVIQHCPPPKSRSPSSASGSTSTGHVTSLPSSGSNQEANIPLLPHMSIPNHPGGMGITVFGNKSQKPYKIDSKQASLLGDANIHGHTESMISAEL

Experiment [1] concerns the target His-tagged soluble human ROR1 (shROR1-His) (human) (UniProt Q01973). The experiment in a line: sandwich ELISA: plate coated with shROR1-His, serial dilutions of diabody, bound diabody detected with biotinylated CD3 and streptavidin-HRP; abs @450nm. A general note: In an ELISA, binding on a coated surface is turned into a signal by an enzyme label.
Experiment [2] has the same target. The experiment in a line: sandwich ELISA, coated shROR1-His, detection with biotinylated CD3.
Experiment [3] has the same target. The experiment in a line: sandwich ELISA (FIG. 11A).
For experiment [4] the target is unchanged. As to the kind of experiment: ELISA, plate-coated shROR1-His, relative to DART-1.

Where a chain is given by its changes, count along the chain named. No constants are given. Whether binding was seen depends on the method and setting. Some binding calls cover weakened binding; strength is not graded here.

B1: DART-1 (bispecific antibody)
chain 1: QLVLTQSPSASASLGSSVKLTCTLSSGHKTDTIDWYQQQPGKAPRYLMKLEGSGSYNKGSGVPDRFGSGSSSGADRYLTISSLQSEDEADYYCGTDYPGNYLFGGGTQLTVLGGGGSGGGGEVQLVESGGGLVQPGGSLRLSCAASGFTFSTYAMNWVRQAPGKGLEWVGRIRSKYNNYATYYADSVKGRFTISRDDSKNSLYLQMNSLKTEDTAVYYCVRHGNFGNSYVSWFAYWGQGTLVTVSSGGCGGGKVAALKEKVAALKEKVAALKEKVAALKE
chain 2: QAVVTQEPSLTVSPGGTVTLTCRSSTGAVTTSNYANWVQQKPGQAPRGLIGGTNKRAPWTPARFSGSLLGGKAALTITGAQAEDEADYYCALWYSNLWVFGGGTKLTVLGGGGSGGGGQEQLVESGGGLVQPGGSLRLSCAASGFTFSDYYMSWVRQAPGKGLEWVATIYPSSGKTYYADSVKGRFTISSDNAKNSLYLQMNSLRAEDTAVYYCARDSYADDAALFDIWGQGTTVTVSSGGCGGGEVAALEKEVAALEKEVAALEKEVAALEK
B1: the binding entry in experiment [1], in experiment [2] and in experiment [3] was “binds” throughout.

B2: DART-21 (bispecific antibody)
chain 1: B1 chain 1 with S70I
chain 2: B1 chain 2 with A215T
Regarding B2, the binding result in experiment [4] was “binds”.

B3: DART-8 (bispecific antibody)
chain 1: B1 chain 1 with K19N
chain 2: B1 chain 2
For the molecule B3, in experiment [4], the binding result is reported as “binds”.

B4: DART-11 (bispecific antibody)
chain 1: B1 chain 1 with R76W, Y97N
chain 2: B1 chain 2
Consider B4, for which the binding result in experiment [4] is listed as “binds”.

B5: DART-7 (bispecific antibody)
chain 1: B1 chain 1 with K19I
chain 2: B1 chain 2
For B5, in experiment [4], the binding entry is “binds”.

B6: DART-17 (bispecific antibody)
chain 1: B1 chain 1
chain 2: B1 chain 2 with N195Y
As to B6, the binding entry in experiment [4] is “binds”.

B7: DART-6 (bispecific antibody)
chain 1: B1 chain 1 with S70I
chain 2: B1 chain 2
Take B7: in experiment [4], the binding result was “binds”.

B8: DART-16 (bispecific antibody)
chain 1: B1 chain 1
chain 2: B1 chain 2 with A215T
Regarding B8, in experiment [4], the binding result is listed as “binds”.

B9: DART-29 (bispecific antibody)
chain 1: B1 chain 1 with R76W, Y97N
chain 2: B1 chain 2 with F186L, N195D, A215T
Regarding B9, the binding result in experiment [4] is on record as “binds”.

B10: DART-20 (bispecific antibody)
chain 1: B1 chain 1 with R76W
chain 2: B1 chain 2 with A215T
As to B10, the binding result in experiment [4] was “binds”.

B11: DART-14 (bispecific antibody)
chain 1: B1 chain 1
chain 2: B1 chain 2 with F186L
In the case of B11, in experiment [4], the binding result is reported as “binds”.

B12: DART-25 (bispecific antibody)
chain 1: B1 chain 1 with R76W
chain 2: B1 chain 2 with F186L, N195D, A215T
As for B12, the binding result in experiment [4] is “binds”.

B13: DART-10 (bispecific antibody)
chain 1: B1 chain 1 with Y97N
chain 2: B1 chain 2
For the molecule B13, the binding result in experiment [4] is “binds”.

B14: DART-26 (bispecific antibody)
chain 1: B1 chain 1 with R76W, Y97N
chain 2: B1 chain 2 with A215T
For B14, the binding result in experiment [4] is reported as “binds”.

B15: DART-3 (bispecific antibody)
chain 1: B1 chain 1 with K49N
chain 2: B1 chain 2
Consider B15, for which, in experiment [4], the binding entry is “binds”.

B16: DART-4 (bispecific antibody)
chain 1: B1 chain 1 with S16G
chain 2: B1 chain 2
Turning to B16, the binding result in experiment [4] was “binds”.

B17: DART-22 (bispecific antibody)
chain 1: B1 chain 1 with R76W
chain 2: B1 chain 2 with F186L
On to B17, for which the binding result in experiment [4] is given as “binds”.

B18: DART-19 (bispecific antibody)
chain 1: B1 chain 1
chain 2: B1 chain 2 with D227Y
Consider B18, for which, in experiment [4], the binding entry is on record as “binds”.

B19: DART-9 (bispecific antibody)
chain 1: B1 chain 1 with N57T
chain 2: B1 chain 2
With B19, in experiment [4], the binding entry is on record as “binds”.

B20: DART-24 (bispecific antibody)
chain 1: B1 chain 1 with Y97N
chain 2: B1 chain 2 with A215T
As for B20, in experiment [4], the binding result was “binds”.

B21: DART-18 (bispecific antibody)
chain 1: B1 chain 1
chain 2: B1 chain 2 with D227A
Turning to B21, the binding result in experiment [4] was “binds”.

B22: DART-2 (bispecific antibody)
chain 1: B1 chain 1 with R76W
chain 2: B1 chain 2
In the case of B22, the binding entry in experiment [4] was “binds”.

B23: DART-5 (bispecific antibody)
chain 1: B1 chain 1 with N57S
chain 2: B1 chain 2
As for B23, the binding entry in experiment [4] is given as “binds”.
